PubChem BioAssay AID1259308, NCATS, 2017
Purpose: 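Genes whose loss raises luciferase production in HEK293 cells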 (primary screen). Cell system: human HEK293 embryonic kidney cells stably expressing firefly luciferase (HEK-CMV-Luc2-Hygro). Reagent: single siRNA against human genes, 0.8 pmol siRNA per well. Timing: 72 h. Read-out: 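Luciferase light (ONE-Glo) measured on one replicate plate set and viability (CellTiter-Glo) on the other, scaled to a negative control siRNA, with robust z-scores and luciferase per cell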. Scale: total luciferase, z-score and total luciferase, % of control: higher = more reporter protein produced; luciferase per cell, z-score: higher = more reporter output per viable cell; viable cells, % of control: higher = more viable cells. Call rule: 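Active when the median/MAD z-score for overall luciferase is greater than 3; a gene was taken forward for validation with new siRNAs if at least two of its three siRNAs passed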. Meaning of the calls: active = raised luciferase; inactive = no rise.
The deposit covers about 59,000 reagents; shown is a part drawn at random. In the full data, about 1,510 (2.6%) were called active. 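Calls use total luciferase alone and ignore viability, so some active siRNAs may act by altering cell number.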 The numbers tell different reagents against one gene apart. No sequences are given here.

Gene,reagent no.,"total luciferase, z-score","total luciferase, % of control","luciferase per cell, z-score","viable cells, % of control",Outcome
PRAMEF5,1,0.612,94.1,2.82,50.1,inactive
PRAMEF5,2,-0.289,76.1,0.0624,83.7,inactive
PRAMEF5,3,-1.01,61.7,-0.732,83.6,inactive
OR4P4,1,0.339,88.6,0.244,92.9,inactive
OR4P4,2,1.43,110,0.658,104,inactive
OR4P4,3,-0.654,68.9,-0.95,98.8,inactive
PKHD1,1,-0.2,77.9,-0.816,108,inactive
PKHD1,2,-0.26,76.7,0.113,83.2,inactive
PKHD1,3,-1.01,61.8,-0.658,82.2,inactive
MBOAT7,1,-0.000806,81.9,-0.463,103,inactive
MBOAT7,2,0.722,96.3,0.773,87.7,inactive
MBOAT7,3,-0.248,77,0.528,74.8,inactive
HHIP,1,0.545,92.7,1.31,73.4,inactive
HHIP,2,0.514,92.1,0.297,95.2,inactive
HHIP,3,-0.506,71.8,0.577,68.9,inactive
SPTAN1,1,-0.697,68,0.0477,75.1,inactive
SPTAN1,2,-1.44,53.2,-2.02,101,inactive
SPTAN1,3,0.558,93,0.9,82,inactive
PLGLB2,1,0.449,90.8,0.855,81,inactive
PLGLB2,2,-0.704,67.9,-1.2,104,inactive
PLGLB2,3,1.28,107,0.638,101,inactive
LOC338963,1,5.12,184,3.24,87.5,active
LOC338963,2,-0.425,73.4,0.449,72.9,inactive
LOC338963,3,2.08,123,2.62,69.1,inactive
USP7,1,1.27,107,0.646,101,inactive
USP7,2,1.67,115,1.07,97.1,inactive
USP7,3,1.11,104,1.67,74.8,inactive
HOXD8,1,-0.121,79.5,-0.415,99.1,inactive
HOXD8,2,0.255,87,0.0371,96.2,inactive
HOXD8,3,0.0918,83.7,0.113,90.8,inactive
CNOT12,1,0.382,89.5,1.62,65.2,inactive
CNOT12,2,-0.581,70.3,-0.625,92.7,inactive
CNOT12,3,1.23,106,0.552,103,inactive
CCIN,1,-0.514,71.7,-0.958,103,inactive
CCIN,2,-0.906,63.9,-0.901,90.5,inactive
CCIN,3,3.68,155,2.1,99.6,active
ZBTB34,1,-0.284,76.2,1.02,65,inactive
ZBTB34,2,0.25,86.9,1.14,71.9,inactive
ZBTB34,3,1.06,103,1.48,78,inactive
ZIM3,1,-1.12,59.6,-0.914,84.8,inactive
ZIM3,2,-0.525,71.4,-0.185,83.8,inactive
ZIM3,3,-1.05,60.9,-0.994,88.4,inactive
ZDHHC16,1,0.681,95.4,0.295,98.7,inactive
ZDHHC16,2,0.685,95.5,0.613,90.8,inactive
ZDHHC16,3,0.603,93.9,1.23,76,inactive
TMED3,1,-1.26,56.7,-0.886,80.1,inactive
TMED3,2,0.106,84,-0.111,96.6,inactive
TMED3,3,2.13,124,1.49,93.7,inactive
MIMS1,1,0.0765,83.4,-0.427,104,inactive
MIMS1,2,1.11,104,1.46,79.3,inactive
MIMS1,3,-0.997,62.1,-1.08,92.1,inactive
AKAP10,1,1.45,111,1.09,92.9,inactive
AKAP10,2,0.0777,83.4,-0.0679,94.9,inactive
AKAP10,3,-0.333,75.3,-0.616,98.9,inactive
RAB42,1,-0.271,76.5,0.523,74.5,inactive
RAB42,2,-0.217,77.6,0.426,77.5,inactive
RAB42,3,-0.389,74.2,0.648,69.9,inactive
OR1L3,1,3.62,154,1.95,103,active
OR1L3,2,-1.55,51,-0.991,74,inactive
OR1L3,3,0.15,84.9,-0.168,99.1,inactive
ZNF891,1,0.142,84.7,0.000991,94.6,inactive
ZNF891,2,-1.39,54.2,-1.94,101,inactive
ZNF891,3,0.235,86.6,0.162,92.7,inactive
IL20RB,1,-1.42,53.6,-0.527,68.8,inactive
IL20RB,2,-2.35,35.1,0.775,32,inactive
IL20RB,3,0.404,89.9,-0.0617,102,inactive
SEC22C,1,0.377,89.4,0.105,97.2,inactive
SEC22C,2,1.2,106,2.12,67.6,inactive
SEC22C,3,1.96,121,1.95,80.8,inactive
PEX39,1,-0.279,76.3,0.366,77.5,inactive
PEX39,2,1.56,113,0.713,105,inactive
PEX39,3,0.515,92.1,-0.0973,106,inactive
CEBPB,1,1.8,118,1.06,99.6,inactive
CEBPB,2,0.107,84,-0.431,105,inactive
CEBPB,3,1.06,103,0.112,112,inactive

Active calls (from the list above):
Gene,reagent no.,"total luciferase, z-score","total luciferase, % of control","luciferase per cell, z-score","viable cells, % of control",Outcome
LOC338963,1,5.12,184,3.24,87.5,active
CCIN,3,3.68,155,2.1,99.6,active
OR1L3,1,3.62,154,1.95,103,active
